Measured values reported in the supplement of paper PMC8256030.
Several values for one entry are separate records, joined by “and”; a condition that tells them apart may be missing. Identical values can stand only once. The list shows a part of the results. Repeats in this data set agree poorly, so a single value says little.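 HEK293T cells were given each compound shortly before transfection with a reporter in which red mCherry is followed by the SARS-CoV-2 frameshift element and then GFP in the −1 frame, so GFP appears only after frameshifting.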

Key:
[1] = system: SARS-CoV-2 -1 PRF reporter mCherry-FSE-GFP(-1); assay: mCherry (red) intensity as percent of control; higher = higher upstream reporter expression; conditions: 10 µM; 24 h; HEK293T
[2] = system: SARS-CoV-2 -1 PRF reporter mCherry-FSE-GFP(-1); assay: percent effect, decrease of GFP/mCherry ratio (-1 PRF reporter) relative to controls; higher = stronger frameshift inhibition; conditions: 10 µM; 24 h; HEK293T

Structure (SMILES)	mCherry [1]	percent effect [2]
CCN(CC)CCCC(C)Nc1c2ccc(Cl)cc2nc2ccc(OC)cc12 (stereo not drawn) [mepacrine]	56.9%	-28.3%
Cc1nccc2[nH]c(=O)ccc12 [medorinone]	109%	-8.75%
CCN(CC)CCNc1ccc(CO)c2sc3ccccc3c(=O)c12 [hycanthone]	92.6%	-4.45%
COc1cc2nc(N3CCN(C(=O)C4CCCO4)CC3)nc(N)c2cc1OC (stereo not drawn)	129%	1.21%
CCCCNc1c(C(=O)OCC)c(C)nc2c1cnn2CC [tracazolate]	103%	-0.887%
Cc1cccc(C)c1NC(=O)c1ccc(N)cc1 [ameltolide]	116%	-0.778%
CN(C)C[C@@H]1CCn2cc(c3ccccc32)C2=C(C(=O)NC2=O)c2cn(c3ccccc23)CCO1	96%	-0.0576%
CN(C)CCCn1c(=O)c2ccccc2c2ccccc21 [fantridone]	102%	-7.96%
O=C1CC[C@@H](C(=O)N2CSC[C@H]2C(=O)O)N1 [pidotimod]	110%	0.529%
COc1ccc(C(=O)N2CCN(c3ccc4c(c3)CCC(=O)N4)CC2)cc1OC [vesnarinone]	116%	-4.6%
CCOC(=O)COc1ccc2c(C)c(CCN(CC)CC)c(=O)oc2c1 [Carbocromen]	115%	-0.604%
CC(=O)Nc1ncc([N+](=O)[O-])s1 [aminitrozole]	107%	-1.1%
S=C(NCCc1ccccn1)Nc1ccc(Br)cn1 [trovirdine]	72.5%	0.798%
CNS(=O)(=O)Cc1ccc2[nH]cc(CCN(C)C)c2c1	116%	-3.11%
CNCC[C@@H](Oc1ccccc1C)c1ccccc1 [Atomoxetine, Strattera,Tomoxetin]	70.1%	1.57%
CC(=O)Oc1cc(C(F)(F)F)ccc1C(=O)O [triflusal]	62.2%	-0.0559%
CCCN(CCC)CCc1cccc2c1CC(=O)N2 [ropinirole]	86.4%	0.12%

Structure (SMILES)	mCherry [1]	percent effect [2]
CCOC(=O)[C@H](CCc1ccccc1)N[C@@H](C)C(=O)N1[C@H](C(=O)O)C[C@H]2CCCC[C@@H]21 [trandolapril]	105% and 94.1%	-0.437% and -5.75%
CC(C)(C)C1CCC(CC2=C(O)c3ccccc3C(=O)C2=O)CC1 (stereo not drawn) [buparvaquone]	84.1%	-0.989%
CO[C@H]1C[C@H](O[C@H]2[C@H](C)[C@@H](O[C@@H]3O[C@H](C)C[C@H](N(C)C)[C@H]3O)[C@@H](C)C[C@@]3(CO3)C(=O)[C@H](C)[C@@H](O)[C@@H](C)[C@@H](C)OC(=O)[C@@H]2C)O[C@@H](C)[C@@H]1O	97.2%	-2.14%
Cn1c([N+](=O)[O-])cnc1COC(N)=O [ronidazole]	101%	-3.51%
CNCCC=C1c2ccccc2CCc2ccccc21 [nortriptyline]	133%	-8.38%
COc1ccc(O)cc1 [mequinol]	119%	-4.13%
Cc1onc(-c2c(Cl)cccc2Cl)c1C(=O)N[C@@H]1C(=O)N2[C@@H]1SC(C)(C)[C@@H]2C(=O)O	124%	-2.31%
CC(=O)c1ccc2c(c1)N(CCCN(C)C)c1ccccc1S2 [acepromazine]	2620%	-23.9%
CC(C)n1c(/C=C/[C@@H](O)C[C@@H](O)CC(=O)O)c(-c2ccc(F)cc2)c2ccccc21	120%	-5.61%
CC1=C(C(=O)O)N2C(=O)[C@@H](NC(=O)[C@H](N)c3ccccc3)[C@H]2SC1 [cefalexin]	121%	-0.458%
COc1cc(/C=C/C(N)=O)cc(OC)c1OC	88.9%	-8.93%
CCOC(=O)[C@H](CCc1ccccc1)N[C@@H](C)C(=O)N1Cc2cc(OC)c(OC)cc2C[C@H]1C(=O)O [moexipril]	130%	-1.63%
COc1cc2nc(N(C)CCCNC(=O)C3CCCO3)nc(N)c2cc1OC (stereo not drawn) [alfuzosin]	97.8% and 87.3%	-3.77% and -3.37%
NC(=O)CC[C@H](N)C(=O)O [glutamine]	106%	-4.51%
COC(=O)c1ccccc1O [Methyl salicylate]	70.7%	-3.19%
C[C@@H](C(=O)O)c1ccc(-c2ccccc2)c(F)c1 [tarenflurbil]	70.3%	-0.997%
O=C(O)c1cc(-c2ccccc2)nc2ccccc12 [cinchophen]	97.9%	-0.926%
